Assay results reported in PubChem BioAssay AID330 (DTP/NCI, 2004).
The list does not hold the whole screen: it gathers tests that were run many times, whatever their T/C, doses with no T/C, and many T/C values between a quarter and a half above the control. Further doses and runs are listed elsewhere. T/C gives the treated animals as a percentage of the vehicle group. Some entries give survivors of the animals treated and no T/C: the source holds a T/C of zero for them, seemingly a mark for toxic or unscored doses. Some survivor counts are full or nearly so, which does not show that the dose was tolerated: survival well below the control is almost never listed, so the zero probably covers shortened survival too. Survivors were counted at the toxicity check, usually on the fifth day, unless a day is given; later deaths do not show. Schedule codes are those of the source, read here as Q, the interval in days (D) or hours (H), X, the number of doses. Some entries were tested several times; their values stand side by side, smallest first. For survival time, this PubChem deposit counts one and a half times the control or more as active, and values a quarter to a half above the control carry no call in these data; other NCI protocols may use other cut-offs. Some T/C values are followed by the survivors on the day toxicity was checked, most often the fifth; where none is given, no animal had died by that day.

Tested on: P388 leukemia ip, CD2F1 mice, survival T/C
Assay: NCI In Vivo Anticancer Drug Screen. Data for tumor model P388 Leukemia (intraperitoneal) in CD2F1 (CDF1) mice
Conditions: T/C endpoint: median survival time, higher T/C = longer survival
[1] = dose: 120.0 mg/kg/injection, schedule: Q01DX005 (ip), vehicle: saline with Tween-80
[2] = dose: 240.0 mg/kg/injection, schedule: Q01DX005 (ip), vehicle: saline with Tween-80
[3] = dose: 50.0 mg/kg/injection, schedule: Q01DX009 (ip), vehicle: saline with Tween-80
[4] = dose: 100.0 mg/kg/injection, schedule: Q01DX009 (ip), vehicle: saline with Tween-80
[5] = dose: 200.0 mg/kg/injection, schedule: Q01DX009 (ip), vehicle: Klucel (hydroxypropylcellulose) (HPC)
[6] = dose: 200.0 mg/kg/injection, schedule: Q01DX009 (ip), vehicle: saline with Tween-80
[7] = dose: 50.0 mg/kg/injection, schedule: Q01DX009 (ip), vehicle: Klucel (hydroxypropylcellulose) (HPC)
[8] = dose: 60.0 mg/kg/injection, schedule: Q01DX005 (ip), vehicle: saline with Tween-80
[9] = dose: 7.5 mg/kg/injection, schedule: Q01DX009 (ip), vehicle: saline with Tween-80

In the case of `O=S1(=O)C=C(c2cccs2)C1`, the survivor count (dose: 200.0 mg/kg/injection, schedule: Q04DX003 (ip), vehicle: saline with Tween-80) is reported as 6 of 6 and the survivor count (dose: 400.0 mg/kg/injection, schedule: Q04DX003 (ip), vehicle: saline with Tween-80) is reported as 4 of 6.

`O=C(O)c1cc(Br)cc(Br)c1O.O=C(O)c1cc(Br)cc(Br)c1O.[Cu]` was tested, and the survivor count [1] was 1 of 6 and the survivor count [2] was 0 of 6.

With `COc1ccc(OC)c(C=Nc2ccc(S(=O)(=O)Nc3nccc(C)n3)cc2)c1` the survivor count [3] was 6 of 6 and the survivor count [4] was 6 of 6.

`O=C(NO)C1NC1C(=O)NO` (stereo not drawn) was tested, and the T/C (dose: 200.0 mg/kg/injection, schedule: Q01DX009 (ip), vehicle: water) was 128 % of control.

`CCCCCCCCC(C)C(=O)N1CCCC1C(=O)N1C(CC(=O)CC)CC(C)CC1C(=O)NC(C)C(=O)NC(C)(C)C(=O)NC(C)(C)C(=O)NC(C(=O)NC(C)C(=O)NC(C)(C)C(=O)NC(C)(C)C(=O)NC(C)CN(C)CCO)C(C)CC` (stereo not drawn) was tested, and the T/C (dose: 0.15 mg/kg/injection, schedule: Q01DX009 (ip), vehicle: Klucel (hydroxypropylcellulose) (HPC)) was 126 % of control, the T/C (dose: 0.31 mg/kg/injection, schedule: Q01DX009 (ip), vehicle: Klucel (hydroxypropylcellulose) (HPC)) was 128 % of control and the T/C (dose: 0.62 mg/kg/injection, schedule: Q01DX009 (ip), vehicle: Klucel (hydroxypropylcellulose) (HPC)) was 142 % of control. The T/C (dose: 1.25 mg/kg/injection, schedule: Q01DX009 (ip), vehicle: Klucel (hydroxypropylcellulose) (HPC)) was 125 % of control and the survivor count (dose: 5.0 mg/kg/injection, schedule: Q01DX009 (ip), vehicle: Klucel (hydroxypropylcellulose) (HPC)) was 0 of 6.

With `NC(CO)C(=O)O.[Cl-].[Cl-].[Cl-].[Cl-].[Pt+2]` (stereo not drawn) the T/C (dose: 25.0 mg/kg/injection, schedule: Q01DX009 (ip), vehicle: saline) was 131 % of control.

In the case of `Br[C](Br)(Br)[Hg][c]1ccccc1`, the survivor count (dose: 25.0 mg/kg/injection, schedule: Q01DX009 (ip), vehicle: saline with Tween-80) is reported as 4 of 6.

With `COc1ccc2c(c1)[C@@]13CCCCC1[C@@H](C2)NCC3` (stereo partly drawn) the survivor count (dose: 200.0 mg/kg/injection, schedule: Q04DX002 (ip), vehicle: Klucel (hydroxypropylcellulose) (HPC)) was 0 of 6 and the survivor count (dose: 400.0 mg/kg/injection, schedule: Q04DX002 (ip), vehicle: Klucel (hydroxypropylcellulose) (HPC)) was 0 of 6.

In the case of `CCOC(=O)c1ccc(NC(=O)SC2=NCCS2)cc1`, the survivor count [5] is reported as 2 of 6.

`CNC(=S)SCc1ccccc1` was tested, and the survivor count [6] was 3 of 6.

In the case of `OC(c1cc2ccc(C(F)(F)F)cc2c2cc(C(F)(F)F)ccc12)C1CCCCN1` (stereo not drawn), the survivor count [3] is reported as 2 of 6 and 4 of 6, the survivor count [4] is reported as 0 of 6 and the survivor count [6] is reported as 0 of 6.

In the case of `Cc1cc(C)nc(NS(=O)(=O)c2ccc(N=c3c4ccccc4n(Cc4ccccc4)c4ccccc34)cc2)n1`, the survivor count (dose: 200.0 mg/kg/injection, schedule: Q01DX005 (ip), vehicle: saline with Tween-80) is reported as 0 of 6.

`CCCCN(CCCC)CCCNc1c2c(nc3ccccc13)CCCC2` was tested, and the survivor count (dose: 100.0 mg/kg/injection, schedule: Q01DX005 (ip), vehicle: saline) was 0 of 5 and the survivor count (dose: 200.0 mg/kg/injection, schedule: Q01DX005 (ip), vehicle: saline) was 0 of 5.

For `COc1ccn(C2OC(COC(=O)c3ccccc3)C(OC(=O)c3ccccc3)C2OC(=O)c2ccccc2)c(=O)n1` (stereo not drawn), the survivor count (dose: 100.0 mg/kg/injection, schedule: Q01DX005 (ip), vehicle: Klucel (hydroxypropylcellulose) (HPC)) was 6 of 6.

With `COC1/C=C\C=C(/C)C(=O)NC2=CC(=O)C=C(C2=O)C(OC)C(C)CC(OC)C(OC)C(C)/C=C(/C)C1OC(N)=O` (stereo not drawn) the survivor count (dose: 12.0 mg/kg/injection, schedule: Q01DX009 (ip), vehicle: Klucel (hydroxypropylcellulose) (HPC)) was 5 of 6 and the survivor count (dose: 24.0 mg/kg/injection, schedule: Q01DX009 (ip), vehicle: Klucel (hydroxypropylcellulose) (HPC)) was 3 of 6.

In the case of `S=C(Nc1ccc(Cl)c(Cl)c1)SCc1ccc2c(c1)OCO2`, the T/C [7] is reported as 127 % of control, the survivor count [5] is reported as 6 of 6 and the survivor count (dose: 400.0 mg/kg/injection, schedule: Q01DX009 (ip), vehicle: Klucel (hydroxypropylcellulose) (HPC)) is reported as 3 of 6.

In the case of `Cc1nc2ccccc2c(=O)n1-c1nc2ccccc2s1`, the survivor count [8] is reported as 6 of 6 and the survivor count [2] is reported as 6 of 6.

`Nc1nc(N)c2nc(SCc3ccc(Cl)cc3)c(N)nc2n1` was tested, and the survivor count (dose: 60.0 mg/kg/injection, schedule: Q01DX005 (ip), vehicle: Klucel (hydroxypropylcellulose) (HPC)) was 6 of 6.

With `O=C1OC(c2cccc(Cl)c2)=N/C1=C\C=C/c1ccccc1` the survivor count (dose: 200.0 mg/kg/injection, schedule: Q01DX009 (ip), vehicle: suspension in saline) was 6 of 6 and the survivor count (dose: 400.0 mg/kg/injection, schedule: Q01DX009 (ip), vehicle: suspension in saline) was 5 of 6.

In the case of `C(=Nc1cccnc1)c1ccc(C=Nc2cccnc2)cc1`, the survivor count (dose: 200.0 mg/kg/injection, schedule: Q01DX009 (ip), vehicle: saline) is reported as 5 of 6.

With `O=C1NC(=O)c2c1c1cnn(-c3ccccc3)c1n1cccc21` the survivor count [8] was 6 of 6, the survivor count [1] was 6 of 6 and the survivor count [2] was 6 of 6.

`CC1CCCCC1=C(C#N)C#N` (stereo not drawn) was tested, and the survivor count (dose: 50.0 mg/kg/injection, schedule: Q01DX009 (ip), vehicle: other) was 6 of 6 and the survivor count (dose: 100.0 mg/kg/injection, schedule: Q01DX009 (ip), vehicle: other) was 2 of 6.

With `NC(=S)Oc1ccccc1` the survivor count [3] was 6 of 6.

For `CC(=O)OCC1(C)NC(=O)c2ccccc2O1` (stereo not drawn), the T/C [4] was 135 % of control and the T/C [6] was 126 and 127 % of control.

With `O=C(O)CN(CC(=O)O)Cc1cc2c(c(O)c1O)C(=O)c1ccccc1C2=O` the survivor count [3] was 6 of 6.

`COc1cccc2c1C(=O)c1c(O)c3c(c(O)c1C2=O)CC(O)(C(C)=O)CC3OC1CC(NC2CCOCC2)C(O)C(C)O1` (stereo not drawn) was tested, and the T/C (dose: 25.0 mg/kg/injection, schedule: Q04DX003 (ip), vehicle: water) was 126 % of control, the T/C (dose: 50.0 mg/kg/injection, schedule: Q04DX003 (ip), vehicle: water) was 129 % of control and the T/C (dose: 100.0 mg/kg/injection, schedule: Q04DX003 (ip), vehicle: water) was 136 % of control.

For `O=C(Nc1ccc(Cl)cc1)OC1CCS(=O)(=O)C1` (stereo not drawn), the survivor count [7] was 6 of 6.

In the case of `CC1(C)COC(c2cc(Br)ccc2Br)=N1`, the survivor count [3] is reported as 6 of 6.

For `O=C1C2C3C=CC(C3)C2C(=O)N1CNc1ccc2nc(SC3CCCC3)sc2c1` (stereo not drawn), the survivor count [5] was 6 of 6.

For `CC(=O)CC(C)(C)c1ccccc1`, the survivor count (dose: 600.0 mg/kg/injection, schedule: Q01DX009 (ip), vehicle: saline with Tween-80) was 2 of 6.

With `S=c1nc[nH]c2c1ncn2CN1CCCCC1` the T/C (dose: 100.0 mg/kg/injection, schedule: Q01DX009 (ip), vehicle: saline sonified) was 131 % of control, the T/C [4] was 127 % of control and the survivor count [6] was 5 of 6. The survivor count (dose: 400.0 mg/kg/injection, schedule: Q01DX009 (ip), vehicle: saline with Tween-80) was 0 of 6.

With `COc1ccc2c(c1)CCCC(Br)C2=O` (stereo not drawn) the T/C (dose: 50.0 mg/kg/injection, schedule: Q01DX009 (ip), vehicle: distilled water + alcohol) was 131 % of control, the T/C (dose: 100.0 mg/kg/injection, schedule: Q01DX009 (ip), vehicle: distilled water + alcohol) was 144 % of control and the T/C (dose: 200.0 mg/kg/injection, schedule: Q01DX009 (ip), vehicle: distilled water + alcohol) was 146 % of control [5 of 6 alive]. The survivor count (dose: 400.0 mg/kg/injection, schedule: Q01DX009 (ip), vehicle: distilled water + alcohol) was 3 of 6.

For `CN(C)N=Nc1ccc(S(N)(=O)=O)cc1`, the survivor count [5] was 5 of 5.

In the case of `O=C1C(c2ccccc2)=c2c(c3ccccc3c3ccccc23)=C1c1ccccc1`, the survivor count (dose: 200.0 mg/kg/injection, schedule: Q01DX005 (ip), vehicle: Klucel + Tween-80) is reported as 6 of 6.

`COc1cccc(Sc2ccc([N+](=O)[O-])c3no[n+]([O-])c23)c1` was tested, and the survivor count (dose: 3.75 mg/kg/injection, schedule: Q01DX009 (ip), vehicle: saline with Tween-80) was 6 of 6, the T/C [9] was 137 % of control and the survivor count [9] was 6 of 6. The survivor count (dose: 15.0 mg/kg/injection, schedule: Q01DX009 (ip), vehicle: saline with Tween-80) was 6 of 6, the survivor count (dose: 30.0 mg/kg/injection, schedule: Q01DX009 (ip), vehicle: saline with Tween-80) was 3 of 6 and 4 of 6 and the survivor count (dose: 60.0 mg/kg/injection, schedule: Q01DX009 (ip), vehicle: saline with Tween-80) was 0 of 6 and 1 of 6.
